{"sequences": {"note": "The chains behind the UniProt entries cited, without tags or fusion partners.", "UniProt Q0JBA9, entry or part of it": "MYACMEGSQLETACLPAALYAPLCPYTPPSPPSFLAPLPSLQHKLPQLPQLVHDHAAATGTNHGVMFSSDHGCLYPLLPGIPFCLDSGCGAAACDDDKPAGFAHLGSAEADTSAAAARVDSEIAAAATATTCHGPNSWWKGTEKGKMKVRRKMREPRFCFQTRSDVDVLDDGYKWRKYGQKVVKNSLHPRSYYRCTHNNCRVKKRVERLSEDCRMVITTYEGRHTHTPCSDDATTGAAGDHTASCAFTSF"}, "source": "paper PMC7819943", "about": "“Rice protein-binding microarrays: a tool to detect cis-acting elements near promoter regions in rice”", "note": "The other results are listed elsewhere or left out.", "data": [{"biological_target": "OsWRKY34 (Oryza sativa, UniProt Q0JBA9 1-250)", "test": "protein-binding microarray (RPBM); PBS, 2% BSA, 51.3 ng/ul salmon testes DNA, 50 uM zinc acetate, 200 nM TF, 25 C, 1 h; high values mean tight binding", "conditions": "protein: recombinant; tags: N-terminal polyhistidine and DsRed monomer fusion (pET32a); label: CyDye5-dUTP incorporated in the synthesized complementary strand; 3' TTTTT single-stranded linker to array surface; dsDNA, one strand shown", "how_it_was_run": "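Per-feature fluorescence intensity (arbitrary units), read on an Axon 4000B scanner, is the binding signal. Transcription factors carrying an N-terminal polyhistidine tag and DsRed fusion were expressed in E. coli BL21-CodonPlus and purified on Ni–NTA. A custom Agilent array, made double-stranded by primer extension with Cy5-dUTP and blocked with 2% BSA, was incubated with 200 nM protein in PBS, 2% BSA, salmon testes DNA and 50 µM zinc acetate at 25 °C for 1 h and then washed.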", "values": [{"sequence": "TGCATGAATTTTGTGTTGTATATCAGGTAGTCTATTTTTTCGGAGTCACCTAGTGCAG", "binding signal": "10800 fluorescence intensity (a.u.)"}, {"sequence": "GGTTGGTTCTTTTGCTACTGCTTGCCTTTTCTGACTCGCTCGGAGTCACCTAGTGCAG", "binding signal": "12000 fluorescence intensity (a.u.)"}, {"sequence": "GCCGTCTCGGGTTGGGCCAGCCGCCGTCGCGCCTCTGCTCCGGAGTCACCTAGTGCAG", "binding signal": "8600 fluorescence intensity (a.u.)"}, {"sequence": "CTGCATCACCTTCACCTGATCACATCCATATTTGCAATTACGGAGTCACCTAGTGCAG", "binding signal": "8970 fluorescence intensity (a.u.)"}, {"sequence": "TCTTGCAATCTTGATCGATAGTCTCCTCCATCTTCTTCGTCGGAGTCACCTAGTGCAG", "binding signal": "8680 fluorescence intensity (a.u.)"}, {"sequence": "TTCTCGTCCGAAGTCCTCTGTGCGTCCCTCTTCCTTCATTCGGAGTCACCTAGTGCAG", "binding signal": "10100 fluorescence intensity (a.u.)"}, {"sequence": "CTTGATTTCTGCGTTCATATTCTTTTCAATGTTGCAGGGGCGGAGTCACCTAGTGCAG", "binding signal": "9460 fluorescence intensity (a.u.)"}, {"sequence": "TGCCCTCAGTTTTTATTTATGGGCCGGTCCATATCCGACACGGAGTCACCTAGTGCAG", "binding signal": "8060 fluorescence intensity (a.u.)"}, {"sequence": "CATAATTTACCTTTATATCTTTTTTCTTCTGGGATCTTCTCGGAGTCACCTAGTGCAG", "binding signal": "9340 fluorescence intensity (a.u.)"}, {"sequence": "GTCGCCACCCACCATACTAGTCCATCTCGATCCGTCCGTTCGGAGTCACCTAGTGCAG", "binding signal": "11300 fluorescence intensity (a.u.)"}, {"sequence": "TACCAGTCCCTTTCTTCTGCCCAATTCCACAATGTTAAACCGGAGTCACCTAGTGCAG", "binding signal": "8230 fluorescence intensity (a.u.)"}, {"sequence": "AGATGTTGACTCGCCGAAAACCTGACAAGCTGAAATTCTTCGGAGTCACCTAGTGCAG", "binding signal": "8620 fluorescence intensity (a.u.)"}, {"sequence": "GTATTCCAAAACGCCACACCAACCGCACTGTGAATTTCTGCGGAGTCACCTAGTGCAG", "binding signal": "9640 fluorescence intensity (a.u.)"}, {"sequence": "CCGATTCTCTTCTCTATCATATTTTATCTCATTAAAATATCGGAGTCACCTAGTGCAG", "binding signal": "8990 fluorescence intensity (a.u.)"}, {"sequence": "CTTAGGCTGTGTTTAGTTTCACGCCAAAATTAGAAATTTGCGGAGTCACCTAGTGCAG", "binding signal": "8420 fluorescence intensity (a.u.)"}, {"sequence": "GTTGTGGGTGTGAAAATTCCATGAATTCATTGTCTTTGCACGGAGTCACCTAGTGCAG", "binding signal": "8300 fluorescence intensity (a.u.)"}, {"sequence": "TGTACATTTCTACTGACCTGCCACGTGGCACTTTACATTCCGGAGTCACCTAGTGCAG", "binding signal": "10600 fluorescence intensity (a.u.)"}, {"sequence": "TTCTTCCCCGTCTCCGTCACCCGAACCCTCTCAACCCATGCGGAGTCACCTAGTGCAG", "binding signal": "9840 fluorescence intensity (a.u.)"}, {"sequence": "TCCCTAAATATTTGACGCCATTGACTTTTTTAAACATGTTCGGAGTCACCTAGTGCAG", "binding signal": "11200 fluorescence intensity (a.u.)"}, {"sequence": "TGCGACGTTGTCTTGATCTTTTGTTGTAATGAAACCGATTCGGAGTCACCTAGTGCAG", "binding signal": "9060 fluorescence intensity (a.u.)"}, {"sequence": "CACGCAGCTCTCCGGTGGCCGTCGAACCATCCGCGCGGGCCGGAGTCACCTAGTGCAG", "binding signal": "8120 fluorescence intensity (a.u.)"}, {"sequence": "CAAACTCCACTTGATTACTTCATCGTGCCGACGTCGACACCGGAGTCACCTAGTGCAG", "binding signal": "8600 fluorescence intensity (a.u.)"}, {"sequence": "ATGAGACGGTACCTGATACTTGATGCATGCTGTGGTACCACGGAGTCACCTAGTGCAG", "binding signal": "8820 fluorescence intensity (a.u.)"}, {"sequence": "CATCCATCCCTGCCTTTCTTCAGATCATCTCATACTAGGCCGGAGTCACCTAGTGCAG", "binding signal": "10500 fluorescence intensity (a.u.)"}, {"sequence": "TTTTACCTGATGTTAAATTTCCCCTAAAACTTGCACGATACGGAGTCACCTAGTGCAG", "binding signal": "8140 fluorescence intensity (a.u.)"}, {"sequence": "TCCTCTCCATCTCTCTAGTTTCTCTCTCTAATTAAGCATTCGGAGTCACCTAGTGCAG", "binding signal": "10300 fluorescence intensity (a.u.)"}, {"sequence": "GCTACAGCACTCTCCGCCATTCTTCATTTCCAGCCGTTGGCGGAGTCACCTAGTGCAG", "binding signal": "8740 fluorescence intensity (a.u.)"}, {"sequence": "TACACATCAATGTCGTTACCAGGTTGCTTTGGGCCTTGAACGGAGTCACCTAGTGCAG", "binding signal": "8200 fluorescence intensity (a.u.)"}, {"sequence": "GCCTATCCTGCCCTCTCTACTACCACCCTTATCGATCTCTCGGAGTCACCTAGTGCAG", "binding signal": "8340 fluorescence intensity (a.u.)"}, {"sequence": "ACTTCACATTTCCTTCTAACCTCTGCTTTGTCATTTCATACGGAGTCACCTAGTGCAG", "binding signal": "9240 fluorescence intensity (a.u.)"}, {"sequence": "AAGTGCTCGATCGGGAGCGGTGGTGGTGGTGGGGAGAGAGCGGAGTCACCTAGTGCAG", "binding signal": "11300 fluorescence intensity (a.u.)"}, {"sequence": "ATCACGCATCGCCTCCTACCTGACACACCACACTGCAAACCGGAGTCACCTAGTGCAG", "binding signal": "9620 fluorescence intensity (a.u.)"}, {"sequence": "TGGCCGGAGAGGGGAGATGGGGAGATGGGGAGAGGGGAGGCGGAGTCACCTAGTGCAG", "binding signal": "9420 fluorescence intensity (a.u.)"}, {"sequence": "CCCGGGTCATTGACCCAATCGACACACATTCATGGTAACTCGGAGTCACCTAGTGCAG", "binding signal": "8590 fluorescence intensity (a.u.)"}, {"sequence": "ACTTACCATGCTATTATATAGGCTGCATATACTCATAAAACGGAGTCACCTAGTGCAG", "binding signal": "9600 fluorescence intensity (a.u.)"}, {"sequence": "ACATATGTTGTTTAAGCTAGTTTTATTGTTATCATTGTAACGGAGTCACCTAGTGCAG", "binding signal": "9620 fluorescence intensity (a.u.)"}, {"sequence": "CCTCTGCTCTGCCGTCGCCCACTCCGCCCGCCGCCCACTCCGGAGTCACCTAGTGCAG", "binding signal": "8710 fluorescence intensity (a.u.)"}, {"sequence": "ACGCACGCACGCAAACCCTATCTCTATGAGCATCTTCGAACGGAGTCACCTAGTGCAG", "binding signal": "8170 fluorescence intensity (a.u.)"}, {"sequence": "AGGCACCGTCGTTGTCATCCATCATGCTCGACCACTCACGCGGAGTCACCTAGTGCAG", "binding signal": "8390 fluorescence intensity (a.u.)"}, {"sequence": "GTTTTCCGATTGATATCGACATGTCTCTGTTTTCATAGTTCGGAGTCACCTAGTGCAG", "binding signal": "9300 fluorescence intensity (a.u.)"}, {"sequence": "ACCTGTATTTATTTCGTTTTAAATACATGCTTCTAATAGTCGGAGTCACCTAGTGCAG", "binding signal": "8780 fluorescence intensity (a.u.)"}, {"sequence": "GTTTCAAACTTCCAGAGTTCCGGCCCATTTCCGACCCACTCGGAGTCACCTAGTGCAG", "binding signal": "8620 fluorescence intensity (a.u.)"}]}]}
